In paper PMC7819943, “Rice protein-binding microarrays: a tool to detect cis-acting elements near promoter regions in rice”:
The list shows a part of the results.

Protein sequences, listed by entry. Tags and fused reporters are not part of them.
UniProt Q0JBA9, entry or part of it: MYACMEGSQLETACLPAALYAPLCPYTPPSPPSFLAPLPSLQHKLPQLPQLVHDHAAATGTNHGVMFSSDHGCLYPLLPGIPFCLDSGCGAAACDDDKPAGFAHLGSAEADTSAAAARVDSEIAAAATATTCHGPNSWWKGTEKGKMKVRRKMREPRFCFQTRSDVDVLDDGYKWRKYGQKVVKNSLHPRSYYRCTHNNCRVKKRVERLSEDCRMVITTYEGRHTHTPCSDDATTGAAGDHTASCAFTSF

target: OsWRKY34 (Oryza sativa, UniProt Q0JBA9 1-250); assay: protein-binding microarray (RPBM); PBS, 2% BSA, 51.3 ng/ul salmon testes DNA, 50 uM zinc acetate, 200 nM TF, 25 C, 1 h; high values mean tight binding; settings: protein: recombinant; tags: N-terminal polyhistidine and DsRed monomer fusion (pET32a); label: CyDye5-dUTP incorporated in the synthesized complementary strand; 3' TTTTT single-stranded linker to array surface; dsDNA, one strand shown
In short: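 Polyhistidine-tagged DsRed fusions of transcription factors, joined at the N-terminus, were expressed in E. coli BL21-CodonPlus and isolated on Ni–NTA. They were incubated at 200 nM for 1 h at 25 °C on a custom Agilent array, double-stranded and BSA-blocked, in PBS with 2% BSA, salmon testes DNA and 50 µM zinc acetate. The binding signal is per-feature fluorescence intensity (arbitrary units) read on an Axon 4000B scanner after washing.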

Sequence | binding signal
AACTTTCTCCCACCGGCCACCGCGCGTCTCTTGCCACGACCGGAGTCACCTAGTGCAG | 12200 fluorescence intensity (a.u.)
ACCCCGCCGCTGCCGCCGCCGACCCCACCGCCGACCCCGCCGGAGTCACCTAGTGCAG | 11600 fluorescence intensity (a.u.)
TTTCGCCCCTCGCGGCCACGTTTTACTTTCCTTTTTTTTTCGGAGTCACCTAGTGCAG | 13100 fluorescence intensity (a.u.)
TCCGCTCTCTCTCTCTCTCGTCGTCGACCGCCGCCGTCTGCGGAGTCACCTAGTGCAG | 12800 fluorescence intensity (a.u.)
GTTCGTTCTCCTTTCTTGTTTCGCGTGATCACCGGCGTCTCGGAGTCACCTAGTGCAG | 12000 fluorescence intensity (a.u.)
GCCCTAGACATGGAAGAGGAGGGGAGAGGGGAAGGGGAGACGGAGTCACCTAGTGCAG | 8740 fluorescence intensity (a.u.)
CTCAACCCTATCCATTCACTTCCAACCTCATCCACTCATTCGGAGTCACCTAGTGCAG | 15000 fluorescence intensity (a.u.)
AAGCCGCATATGGAGTTTTTTTTGGTGTTTCAGTTTCAAGCGGAGTCACCTAGTGCAG | 8500 fluorescence intensity (a.u.)
CACCGCCGCCGCCCAACTCCAATTCTTCCACCGCTTGTGTCGGAGTCACCTAGTGCAG | 9590 fluorescence intensity (a.u.)
CGATCCTTCCAAACCCTAGCTTAGTCGTTGACTCCTGCGCCGGAGTCACCTAGTGCAG | 8990 fluorescence intensity (a.u.)
GGGTAAGACATTTAGCAGTCAGTTTCAACCAGTTTTAGCGCGGAGTCACCTAGTGCAG | 8990 fluorescence intensity (a.u.)
ATAGGGGTGGTCATATTTTGTGGTTGAGGTGAAATTTCCACGGAGTCACCTAGTGCAG | 14300 fluorescence intensity (a.u.)
CCACCACCCGCTACTGCCATCTGGGACCCACATCCGCGGACGGAGTCACCTAGTGCAG | 9020 fluorescence intensity (a.u.)
GCGAGGGAGGTATTAGTTGTATTTGATTGTTTGTTTTCTTCGGAGTCACCTAGTGCAG | 13700 fluorescence intensity (a.u.)
AAACGACGGTACGACGCGTACTATTTTTCTTCTTCCAACCCGGAGTCACCTAGTGCAG | 9170 fluorescence intensity (a.u.)
AAACAATCCGACGGCCCGTATTCCGTGGTCCACGGCCACGCGGAGTCACCTAGTGCAG | 9020 fluorescence intensity (a.u.)
TTCCACTAGGAGATAAGCTCTCTATTAATTTGCTACCCTTCGGAGTCACCTAGTGCAG | 8440 fluorescence intensity (a.u.)
GTCATCATTAATTCATTGCTGTCATTGTTTGCAAGATATTCGGAGTCACCTAGTGCAG | 8800 fluorescence intensity (a.u.)
TTTTATGATGGTATTTGGTTGGCGAGCTGAATTCCTGTTCCGGAGTCACCTAGTGCAG | 8080 fluorescence intensity (a.u.)
CGCCGTTGACTTTTTTAAATATGTTTGACCGTTCGTCTTACGGAGTCACCTAGTGCAG | 39400 fluorescence intensity (a.u.)
CATTCATTCCCCACGCCTCTACCACACGGCCTTTATAATACGGAGTCACCTAGTGCAG | 10200 fluorescence intensity (a.u.)

Sequence | binding signal
ATATCGATCGCCATGTATCTTTTTTTTTTTATGGTTCAGACGGAGTCACCTAGTGCAG | 8470 fluorescence intensity (a.u.)
GCTTGTTAAATCCTCTGGTGCGTCCTTTTTCTGTTGTCAACGGAGTCACCTAGTGCAG | 9950 fluorescence intensity (a.u.)
CCACTCCCAATATTATCCACCATCCGTCTCCATCCAACACCGGAGTCACCTAGTGCAG | 8670 fluorescence intensity (a.u.)
AGAGATGAGCAGCATACTTTGACTTTTAATTTATTCTATGCGGAGTCACCTAGTGCAG | 8440 fluorescence intensity (a.u.)
ACCTTGTCGAAGCTGGAGCAACTCGTTGACCAAAGGGAGTCGGAGTCACCTAGTGCAG | 11200 fluorescence intensity (a.u.)
GCCGCTTCTTCCGCGCATGCGTCGTGATCTCACGTCCTCTCGGAGTCACCTAGTGCAG | 8870 fluorescence intensity (a.u.)
CATCTTGTTGAACCCGATATGTTCTTCAATTTCTTATCTTCGGAGTCACCTAGTGCAG | 10800 fluorescence intensity (a.u.)
CGCGGCGCCTCCTCCTCCTCTCCCAATTCCGCCGCCAATTCGGAGTCACCTAGTGCAG | 8790 fluorescence intensity (a.u.)
CGCCATCGATGCGTGACCACCGAGCTCGCCTCGTCCACACCGGAGTCACCTAGTGCAG | 8580 fluorescence intensity (a.u.)
CCGTGGTGTGACAAAATTGCCCCTGTGACCATTTAGTTGACGGAGTCACCTAGTGCAG | 8160 fluorescence intensity (a.u.)
ACCCACATGTCATTGACTCATATGGGTCATACATGTCATTCGGAGTCACCTAGTGCAG | 10000 fluorescence intensity (a.u.)
GTCCGTAAGATCACTCACTGGCCACTTCATCTTCTTGCTCCGGAGTCACCTAGTGCAG | 12500 fluorescence intensity (a.u.)
TTCATTATTGGATGCCAGCTCTTAGATACCTTGTGGTTTACGGAGTCACCTAGTGCAG | 8250 fluorescence intensity (a.u.)
ATTCATATGCCTAGATTATAGTGTGTTTAGTAATATCCTTCGGAGTCACCTAGTGCAG | 8450 fluorescence intensity (a.u.)
CTTACCTATTTACGATTTTTTTCCATGTATTTATGTATTTCGGAGTCACCTAGTGCAG | 9360 fluorescence intensity (a.u.)
TTATCATATTTTTGCTTCCAGTGTCACGTGACCGCCACATCGGAGTCACCTAGTGCAG | 10000 fluorescence intensity (a.u.)
ACATCTCATCACTACTTACTTCCTATGCTTTTCACAATCACGGAGTCACCTAGTGCAG | 12900 fluorescence intensity (a.u.)
CTGGTCCATGATTCCTTTCACCACTTGCCCTTTGTCTTGTCGGAGTCACCTAGTGCAG | 8950 fluorescence intensity (a.u.)
AAACCGCCAAGAGACCTAGTTTGCACTGATTTTGTAACTTCGGAGTCACCTAGTGCAG | 8380 fluorescence intensity (a.u.)
CTTTGTGTCTCTCACTGACCGACTCGTGCTGCCCTTTATACGGAGTCACCTAGTGCAG | 8240 fluorescence intensity (a.u.)
CCACACCCGCTGCCGCCCACCTCGCCGTCTCCGCGCTTGACGGAGTCACCTAGTGCAG | 12300 fluorescence intensity (a.u.)

Sequence | binding signal
TCTCGCCTCCGCCGCTCCCGAATTCCCCACCGCGCCACCGCGGAGTCACCTAGTGCAG | 9060 fluorescence intensity (a.u.)
TCAAGATCCAATCCGCTCAAATACTTTGGCCTTGCTATCTCGGAGTCACCTAGTGCAG | 8160 fluorescence intensity (a.u.)
TAAATACCACTCGCCATGCACACTCCAAGCACACACAAAGCGGAGTCACCTAGTGCAG | 8400 fluorescence intensity (a.u.)
CTCTCTTCAGCTTGCCATATCTCTGTTGTTGACTTGCAAGCGGAGTCACCTAGTGCAG | 10800 fluorescence intensity (a.u.)
TCGCGCCACCGCCACTGATTCGCCGGAGAGTTGCTGTTCCCGGAGTCACCTAGTGCAG | 8360 fluorescence intensity (a.u.)
TATGGGGTCTTCCGGCTAGCTCTATAAGGTGGTGGGTTACCGGAGTCACCTAGTGCAG | 11700 fluorescence intensity (a.u.)
ATCGCCTTGAATCGTCGCCTCTTCATGCCCAGTCCGCCAACGGAGTCACCTAGTGCAG | 12700 fluorescence intensity (a.u.)
CATCCTTCTCCGCGGCCATTTCTTGGAGCAAATCTCATTTCGGAGTCACCTAGTGCAG | 8420 fluorescence intensity (a.u.)
TTTGTGGGTGGTTTTGGGCTAAAGATTCCGTTTCTTTCGACGGAGTCACCTAGTGCAG | 9250 fluorescence intensity (a.u.)
TGGCATCAATCATTATCACATATTTCTTCGGCAGTTAATTCGGAGTCACCTAGTGCAG | 8040 fluorescence intensity (a.u.)
CTTCGGTTTTGAACAAAATGCCTTCGAATTCAGTTTTTATCGGAGTCACCTAGTGCAG | 8980 fluorescence intensity (a.u.)
CTGCTCCTATCATGTGGCGTAATAGAATTGTTTACTTATACGGAGTCACCTAGTGCAG | 8620 fluorescence intensity (a.u.)
CACCCACTATTCATATTTCACTTTTAATCACTTGTTTTAACGGAGTCACCTAGTGCAG | 8240 fluorescence intensity (a.u.)
ATGGCCGTCTCCATCGCTTCGTTTCACCTCGCTTTCCATGCGGAGTCACCTAGTGCAG | 12600 fluorescence intensity (a.u.)
AATCCTACGTTTTTCCTATTCCTATGTTTTCTCAGTCATGCGGAGTCACCTAGTGCAG | 10100 fluorescence intensity (a.u.)
GCCACTGAAAAAGTGTCTTTTTTCCTCTATCTCCCTCTATCGGAGTCACCTAGTGCAG | 8510 fluorescence intensity (a.u.)
TTTTGAGGTTTTTTCATCGTAGTTTATTTTTCAGCATTTACGGAGTCACCTAGTGCAG | 9900 fluorescence intensity (a.u.)
TGCATTGCTTTCCCTGCCTCCTCTGCAAGAGCTCCATCATCGGAGTCACCTAGTGCAG | 8280 fluorescence intensity (a.u.)
GTAATGGTCACTACTGACCAATTCGTTTGCCCGTCACAGGCGGAGTCACCTAGTGCAG | 12300 fluorescence intensity (a.u.)
CTTATTGTTGTTGGTTCGATTTATGTTGTCTTCTTCCTCTCGGAGTCACCTAGTGCAG | 9210 fluorescence intensity (a.u.)
CGTGTGTGTGTTGCAGGTTTCACTGCAGTTGCTGGAGTTTCGGAGTCACCTAGTGCAG | 9340 fluorescence intensity (a.u.)

Single values from above:
Entry for TATGGGGTCTTCCGGCTAGCTCTATAAGGTGGTGGGTTACCGGAGTCACCTAGTGCAG under binding signal: 11700 fluorescence intensity (a.u.)
Entry for CTTCGGTTTTGAACAAAATGCCTTCGAATTCAGTTTTTATCGGAGTCACCTAGTGCAG under binding signal: 8980 fluorescence intensity (a.u.)
Entry for TGGCATCAATCATTATCACATATTTCTTCGGCAGTTAATTCGGAGTCACCTAGTGCAG under binding signal: 8040 fluorescence intensity (a.u.)
Entry for GCCACTGAAAAAGTGTCTTTTTTCCTCTATCTCCCTCTATCGGAGTCACCTAGTGCAG under binding signal: 8510 fluorescence intensity (a.u.)
Entry for CGTGTGTGTGTTGCAGGTTTCACTGCAGTTGCTGGAGTTTCGGAGTCACCTAGTGCAG under binding signal: 9340 fluorescence intensity (a.u.)
Entry for ATGGCCGTCTCCATCGCTTCGTTTCACCTCGCTTTCCATGCGGAGTCACCTAGTGCAG under binding signal: 12600 fluorescence intensity (a.u.)

More entries follow:

Sequence | binding signal
TCTGTGCATTTACTTTCAATATTATTACACTTTTAGTTGCCGGAGTCACCTAGTGCAG | 8460 fluorescence intensity (a.u.)
TTACAGCACTATCTAATCTAGTATCTACTCGTCTTGTTATCGGAGTCACCTAGTGCAG | 10400 fluorescence intensity (a.u.)
GTGAATTTCCACCCTGCTGTTGCTGTTTATGTGAATCGCCCGGAGTCACCTAGTGCAG | 8050 fluorescence intensity (a.u.)
ATTCTGCCCATGTTTTCTATTCGTACTATAGTGTGTTTTACGGAGTCACCTAGTGCAG | 14500 fluorescence intensity (a.u.)
TCATGAGGAGTAGATCGCTTGGGTTTTTTATCGTATGGTGCGGAGTCACCTAGTGCAG | 8600 fluorescence intensity (a.u.)
GCCTAGTTCAATTCACCCGTTTTCTGGCCCAATGGAAATTCGGAGTCACCTAGTGCAG | 8500 fluorescence intensity (a.u.)
TTCAAGCTCCCAATTTTCCCTTTTAATGTTCCCACTTTTTCGGAGTCACCTAGTGCAG | 8660 fluorescence intensity (a.u.)
ACTAACTTGCGTTGTGTGGTGGGTATAGATTGGTATAACACGGAGTCACCTAGTGCAG | 10400 fluorescence intensity (a.u.)
TTTGGGGATTTCTTTCTTATTTTTCTTTCCCTTTTTTTCCCGGAGTCACCTAGTGCAG | 10900 fluorescence intensity (a.u.)
GGGTATATAAACTTTGGGTCTATAAACTTTAGGTGTATAACGGAGTCACCTAGTGCAG | 8650 fluorescence intensity (a.u.)
GCTGCTCCCATATGTTTATTCAGAGATGCTCTCTTTGTCCCGGAGTCACCTAGTGCAG | 8940 fluorescence intensity (a.u.)
TACGGAAATACTACTACTGTCCAATTTCCGACTTCATGAGCGGAGTCACCTAGTGCAG | 8800 fluorescence intensity (a.u.)
TTCTTTTGTTAGCTTGTATGTCCTAGCACACGTTTATCTTCGGAGTCACCTAGTGCAG | 11800 fluorescence intensity (a.u.)
TACTCTGATAACTTTCTCTGCGCTGATTTTATTCTAAATCCGGAGTCACCTAGTGCAG | 9070 fluorescence intensity (a.u.)
TCCTCTCGGGCCCGGCGCCCCATGCCGCGTGCATCCAAAACGGAGTCACCTAGTGCAG | 8240 fluorescence intensity (a.u.)
CAGCCAAATTCACCATCCTCCAGCGATCGATCGATCACCTCGGAGTCACCTAGTGCAG | 8110 fluorescence intensity (a.u.)
TATCTCGGTGTCCACCATCATCTCATATATGGCCTTGTTTCGGAGTCACCTAGTGCAG | 13500 fluorescence intensity (a.u.)
ATGCATTTGTCATTGGTTGGCATGTTTGCCATCTGTTCTGCGGAGTCACCTAGTGCAG | 8840 fluorescence intensity (a.u.)
TGAAGCCCTCTATATGTACCCTTTTCGAACCTGTTCATCACGGAGTCACCTAGTGCAG | 8030 fluorescence intensity (a.u.)
AGGGTTATTTTAATCATATTATTGTTAGTTTTTTTTGTATCGGAGTCACCTAGTGCAG | 9690 fluorescence intensity (a.u.)
CTCCACCAACCTTGCCACCATTCTGTCCAGTCAAAACTTGCGGAGTCACCTAGTGCAG | 9510 fluorescence intensity (a.u.)
